From the supplement of paper PMC10735217
Structures can show the parent of a compound that is named as a salt. The list shows a part of the results. This data set is noisy: repeats of one test often differ as much as different tests do.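 Human kidney-derived cells stably carry a construct in which eight TEAD-binding elements drive luciferase, measured by luminescence in a drug-repurposing library screen. A hit is any compound whose signal exceeds the plate mean by more than five robust Z scores.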

Test system: HEK293A TEAD-LUC reporter
Experiment: TEAD-luciferase reporter activity (YAP activation), robust Z score vs plate; higher = stronger YAP/TEAD activation
Settings: 24 h

Row | Structure (SMILES) | TEAD-luciferase reporter activity (compound concentration: 200 nM) | TEAD-luciferase reporter activity (compound concentration: 2 uM) | TEAD-luciferase reporter activity (compound concentration: 10 uM)
1 | CC[C@H]1OC(=O)[C@H](C)[C@@H](O[C@H]2C[C@@](C)(OC)[C@@H](O)[C@H](C)O2)[C@H](C)[C@@H](O[C@@H]2O[C@H](C)C[C@H](N(C)C)[C@H]2O)[C@](C)(O)C[C@@H](C)/C(=N/OCOCCOC)[C@H](C)[C@@H](O)[C@]1(C)O [roxithromycin] | active: 6.14 | inactive: 0.195 | inactive: 0.115
2 | CC1c2ccccc2CCN1c1ssc(=O)c1Cl (stereo unspecified) | inactive: 0.421 | inactive: 0.999 | active: 6.54
3 | COC(=O)[C@H](Cc1ccc(-n2c(=O)c3cc(N(C)C)ccc3n(C)c2=O)cc1)NC(=O)c1c(Cl)cccc1Cl | inactive: -1.32 | – | inactive: -0.379
4 | N#Cc1ccc([C@H]2CCc3cncn32)c(F)c1 [Osilodrostat] | inactive: 0.374 | inactive: 1.76 | inactive: 2.67
5 | CCOC(=O)C1=Cc2cc(Cl)ccc2OC1C(F)(F)F (stereo unspecified) | inactive: -0.671 | inactive: -1.64 | inactive: 1.57
6 | ClC(Cl)Cl | inactive: -0.191 | inactive: -1.59 | inactive: 4.62
7 | CN(C)C(C)(C)CSc1nc2ccccc2cc1-c1ccccc1 | inactive: -1.01 | inactive: 0.959 | inactive: 4.77
8 | Cc1cc(C)[n+]([N-]C(=O)c2ccc(Cl)c(S(N)(=O)=O)c2)c(C)c1 [Besulpamide] | inactive: -1.61 | inactive: -0.186 | inactive: -1.84
9 | COc1ccc2cc(S(=O)(=O)N[C@H](CC(=O)N[C@H](Cc3ccc(CN4[C@H](C)CCC[C@@H]4C)cc3)C(=O)N(C)C(C)C)c3ccc4c(c3)OCO4)ccc2c1 | inactive: 0.209 | – | inactive: 1.02
10 | CC(O)CO (stereo unspecified) | inactive: -0.893 | inactive: -0.847 | inactive: 0.27
11 | CNc1ccc(-c2cc3cc(O)ccc3o2)c(F)n1 | inactive: -0.122 | inactive: 4.26 | active: 5.19
12 | N=C(N)NNCCOc1c(Cl)cccc1Cl | inactive: -0.422 | inactive: -1.46 | inactive: -1.91
13 | CCOc1ccc(CN2CCCCC23Cc2ccccc2CNC3=O)cc1 (stereo unspecified) | inactive: 1.1 | – | inactive: 0.82
14 | CNC(=O)c1nn(C)c2c1C(C)(C)Cc1cnc(Nc3ccc(N4CCN(C)CC4)cc3)nc1-2 [milciclib maleate] | inactive: -0.436 | inactive: -2.26 | inactive: -1.26
15 | CCOC(=O)C1=C[C@]2(CC)CCCN3CCc4c(n1c1ccccc41)[C@@H]32 [vinpocetine] | inactive: -0.81 | inactive: 3.25 | active: 12.2
16 | Nc1nc(NC2CC2)c2ncn(CCOCP(=O)(O)O)c2n1 | inactive: 0.453 | inactive: -2.09 | inactive: 2.23
17 | CC(C(=O)O)c1ccc(/C=C2\CCCC2=O)cc1 (stereo unspecified) | inactive: -0.333 | inactive: -0.568 | inactive: 2.3
18 | COc1ncccc1C(=O)NCCC1CCN(S(=O)(=O)NC(=O)NC[C@H]2C[C@@H]3C=C[C@H]2C3)CC1 [Gliamilide] | inactive: 0.0285 | inactive: 0.401 | inactive: -0.684

Row | Structure (SMILES) | TEAD-luciferase reporter activity (compound concentration: 200 nM) | TEAD-luciferase reporter activity (compound concentration: 2 uM) | TEAD-luciferase reporter activity (compound concentration: 10 uM)
19 | COCCN1CCC(N(Cc2ccc(-c3ccc(C(F)(F)F)cc3)cc2)C(=O)Cn2c(SCc3cccc(F)c3F)cc(=O)c3ccccc32)CC1 | inactive: -2.04 | inactive: -1.68 | active: 6.46
20 | CCS(=O)(=O)c1cc(C(=O)NCC2CCCN2CC2CC2)c(OC)cc1N (stereo unspecified) | inactive: -1.01 | inactive: -0.806 | inactive: 1.21
21 | COc1c(N2C[C@@H]3CCCN[C@@H]3C2)c(F)cc2c(=O)c(C(=O)O)cn(C3CC3)c12 | – | inactive: -0.303 | –
22 | COc1c(N2C[C@@H]3CCCN[C@@H]3C2)c(F)cc2c(=O)c(C(=O)O)cn(C3CC3)c12 [Moxifloxacin hydrochloride] | inactive: -1.36 | inactive: -0.0363 | inactive: -0.549
23 | COc1c(N2C[C@@H]3CCCN[C@@H]3C2)c(F)cc2c(=O)c(C(=O)O)cn(C3CC3)c12 [moxifloxacin punctum plug] | – | inactive: -1.29 | –
24 | CCCCCCCCCCCC[N+](C)(C)CCOc1ccccc1 | inactive: -2.11 | inactive: -1.26 | inactive: -1.52
25 | Cc1cccc(C)c1NC(=O)CN1CCN([C@@H]2CCN(C(=O)c3cc(C(F)(F)F)cc(C(F)(F)F)c3)[C@@H](Cc3ccccc3)C2)CC1 | inactive: 0.0682 | inactive: -1.04 | inactive: -0.925
26 | CC[C@H](Nc1cc(C)nc2c(-c3ccc(OC)cc3C)c(C)nn12)c1nc(C)no1 [Verucerfont] | inactive: -0.69 | inactive: -1.76 | inactive: -1.22
27 | CN(C(=O)CCCOc1ccc2[nH]c(=O)ccc2c1)C1CCCCC1 [cilostamide] | – | inactive: 1.79 | –
28 | CN(C(=O)CCCOc1ccc2[nH]c(=O)ccc2c1)C1CCCCC1 [Cilostamide] | inactive: -0.949 | – | inactive: -1.68
29 | O=c1cc(-c2ccc(O)c(O)c2)oc2cc(O)cc(O)c12 [Digitoflavone] | – | inactive: 2.04 | –
30 | O=c1cc(-c2ccc(O)c(O)c2)oc2cc(O)cc(O)c12 [Luteolin] | inactive: 4.89 | – | inactive: 1.18
31 | CN(C)C(=O)NC1CC2(CCN(Cc3ccc(O)cc3)CC2)Oc2ccccc21 (stereo unspecified) | inactive: -0.239 | – | inactive: 1.11
32 | CC/C(=C(\c1ccc(O)cc1)c1ccc(OCCNC)cc1)c1ccccc1 [Endoxifen (hydrochloride)] | inactive: -0.776 | inactive: -2.42 | inactive: 1.88
33 | CC(=O)OC(C)C[N+](C)(C)C (stereo unspecified) | inactive: 2.02 | inactive: 1.8 | inactive: 1.89
34 | CCN(CC)CCNC(=O)c1cc(Br)c(N)cc1OC [bromopride] | inactive: 0.209 | inactive: -0.0963 | inactive: -0.569
35 | CN1CCN2c3ncccc3Cc3ccccc3C2C1 (stereo unspecified) [mirtazapine] | – | inactive: 0.512 | –
36 | CN1CCN2c3ncccc3Cc3ccccc3C2C1 (stereo unspecified) | inactive: -0.787 | – | inactive: -0.426
